Measured values as given in PMC6868374.
These are yes or no findings as the source states them, for the method shown. In cells and extracts the contact can be indirect. Some entries that bind do so weakly or less than the wild type.

How the values were obtained:
[1] = biological target: T1, ZAR1 (zygote arrest-1), mouse (mouse) (UniProt Q80SU3); assay: co-IP; as a1, proteins co-expressed in HeLa cells, with RNase A treatment
T1 sequence: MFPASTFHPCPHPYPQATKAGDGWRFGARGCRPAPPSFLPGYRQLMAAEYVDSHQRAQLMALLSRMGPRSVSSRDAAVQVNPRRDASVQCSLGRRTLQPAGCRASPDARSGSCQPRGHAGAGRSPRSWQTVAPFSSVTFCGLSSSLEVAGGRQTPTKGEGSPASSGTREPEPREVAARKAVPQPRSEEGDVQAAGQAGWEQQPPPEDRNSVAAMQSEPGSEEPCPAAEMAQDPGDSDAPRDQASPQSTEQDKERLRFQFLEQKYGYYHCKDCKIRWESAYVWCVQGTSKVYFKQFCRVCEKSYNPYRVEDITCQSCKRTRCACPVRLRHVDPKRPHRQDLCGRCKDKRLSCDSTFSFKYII

[2] = biological target: T2, ZAR2 (Zar1-like, ZAR1L), mouse (mouse) (UniProt C3VD30); assay: as above
T2 sequence: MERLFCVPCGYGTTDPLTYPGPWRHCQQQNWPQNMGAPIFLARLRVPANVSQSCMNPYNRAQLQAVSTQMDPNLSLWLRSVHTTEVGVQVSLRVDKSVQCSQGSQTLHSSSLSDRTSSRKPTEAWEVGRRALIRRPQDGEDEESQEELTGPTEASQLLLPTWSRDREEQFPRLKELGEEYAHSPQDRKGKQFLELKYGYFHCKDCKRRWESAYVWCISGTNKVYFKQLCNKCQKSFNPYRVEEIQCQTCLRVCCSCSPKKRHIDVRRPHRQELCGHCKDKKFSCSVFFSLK

[3] = biological target: T1, ZAR1 (zygote arrest-1), mouse (mouse); assay: co-IP; proteins co-expressed in HeLa cells for 48 h; lysis in 50 mM Tris-HCl pH 7.5, 150 mM NaCl, 10% glycerol, 0.5% NP-40; immunoprecipitation with affinity gels (Sigma) for 4 h at 4°C; western blot
[4] = biological target: T2, ZAR2 (Zar1-like, ZAR1L), mouse (mouse); assay: as above

Measured: binding

B1: PADI6 (protein, UniProt Q6TGC4 1-694)
chain: MVSVEGRAMSFQSIIHLSLDSPVHAVCVLGTEICLDLSGCAPQKCQCFTIHGSGRVLIDVANTVISEKEDATIWWPLSDPTYATVKMTSPSPSVDADKVSVTYYGPNEDAPVGTAVLYLTGIEVSLEVDIYRNGQVEMSSDKQAKKKWIWGPSGWGAILLVNCNPADVGQQLEDKKTKKVIFSEEITNLSQMTLNVQGPSCILKKYRLVLHTSKEESKKARVYWPQKDNSSTFELVLGPDQHAYTLALLGNHLKETFYVEAIAFPSAEFSGLISYSVSLVEESQDPSIPETVLYKDTVVFRVAPCVFIPCTQVPLEVYLCRELQLQGFVDTVTKLSEKSNSQVASVYEDPNRLGRWLQDEMAFCYTQAPHKTTSLILDTPQAADLDEFPMKYSLSPGIGYMIQDTEDHKVASMDSIGNLMVSPPVKVQGKEYPLGRVLIGSSFYPSAEGRAMSKTLRDFLYAQQVQAPVELYSDWLMTGHVDEFMCFIPTDDKNEGKKGFLLLLASPSACYKLFREKQKEGYGDALLFDELRADQLLSNGREAKTIDQLLADESLKKQNEYVEKCIHLNRDILKTELGLVEQDIIEIPQLFCLEKLTNIPSDQQPKRSFARPYFPDLLRMIVMGKNLGIPKPFGPQIKGTCCLEEKICCLLEPLGFKCTFINDFDCYLTEVGDICACANIRRVPFAFKWWKMVP
binds: [1] | [2] | [3] | [4]

B2: MATER (protein, UniProt P59047 1-1200)
chain: MKVAGGLELGAAALLSASPRALVTLSTGPTCSILPKNPLFPQNLSSQPCIKMEGDKSLTFSSYGLQWCLYELDKEEFQTFKELLKKKSSESTTCSIPQFEIENANVECLALLLHEYYGASLAWATSISIFENMNLRTLSEKARDDMKRHSPEDPEATMTDQGPSKEKVPGISQAVQQDSATAAETKEQEISQAMEQEGATAAETEEQEISQAMEQEGATAAETEEQGHGGDTWDYKSHVMTKFAEEEDVRRSFENTAADWPEMQTLAGAFDSDRWGFRPRTVVLHGKSGIGKSALARRIVLCWAQGGLYQGMFSYVFFLPVREMQRKKESSVTEFISREWPDSQAPVTEIMSRPERLLFIIDGFDDLGSVLNNDTKLCKDWAEKQPPFTLIRSLLRKVLLPESFLIVTVRDVGTEKLKSEVVSPRYLLVRGISGEQRIHLLLERGIGEHQKTQGLRAIMNNRELLDQCQVPAVGSLICVALQLQDVVGESVAPFNQTLTGLHAAFVFHQLTPRGVVRRCLNLEERVVLKRFCRMAVEGVWNRKSVFDGDDLMVQGLGESELRALFHMNILLPDSHCEEYYTFFHLSLQDFCAALYYVLEGLEIEPALCPLYVEKTKRSMELKQAGFHIHSLWMKRFLFGLVSEDVRRPLEVLLGCPVPLGVKQKLLHWVSLLGQQPNATTPGDTLDAFHCLFETQDKEFVRLALNSFQEVWLPINQNLDLIASSFCLQHCPYLRKIRVDVKGIFPRDESAEACPVVPLWMRDKTLIEEQWEDFCSMLGTHPHLRQLDLGSSILTERAMKTLCAKLRHPTCKIQTLMFRNAQITPGVQHLWRIVMANRNLRSLNLGGTHLKEEDVRMACEALKHPKCLLESLRLDCCGLTHACYLKISQILTTSPSLKSLSLAGNKVTDQGVMPLSDALRVSQCALQKLILEDCGITATGCQSLASALVSNRSLTHLCLSNNSLGNEGVNLLCRSMRLPHCSLQRLMLNQCHLDTAGCGFLALALMGNSWLTHLSLSMNPVEDNGVKLLCEVMREPSCHLQDLELVKCHLTAACCESLSCVISRSRHLKSLDLTDNALGDGGVAALCEGLKQKNSVLARLGLKACGLTSDCCEALSLALSCNRHLTSLNLVQNNFSPKGMMKLCSAFACPTSNLQIIGLWKWQYPVQIRKLLEEVQLLKPRVVIDGSWHSFDEDDRYWWKN
binds: [1] | [2] | [3] | [4]
